The text below walks through data of patent publication US20140079691A1.

Amino acid sequences for entries named in this document (tags omitted). Residues count along the entry.
UniProt P03612, residues 2-130: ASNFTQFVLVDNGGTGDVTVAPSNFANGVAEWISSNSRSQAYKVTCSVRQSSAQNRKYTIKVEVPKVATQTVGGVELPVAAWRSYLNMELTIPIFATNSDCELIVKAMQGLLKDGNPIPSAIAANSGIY

Residue numbers refer to the chain shown, from its start. These are yes or no findings as the source states them, for the method shown. Some binding calls cover weakened binding; strength is not graded here.

The assay deals with MS2 bacteriophage coat protein (MS2 bacteriophage) (UniProt P03612). Put plainly: SPR (Biacore). For orientation: SPR reads the build-up and loss of mass on a sensor chip optically.

B1: APE556 (antibody, V domains shown)
VH: EVQLLESGGGLVQPGGSLRLSCAASGFTFSSYAMSWVRQAPGKGLEWVSTISTGGGYTYFPDSVKGRFTISRDNSKNTLYLQMNSLRAEDTAVYYCARQGDFGDWYFDVWGAGTTVTVSS
VL: DVVMTQSPLSLPVTLGQPASISCRSSQSLVHSNGNTYLHWYQQRPGQSPRLLIYKVSNRFSGVPDRFSGSGSGTDFTLKISRVEAEDVGVYFCSQSTHVPWTFGGGTKLEIK
For B1, the binding result is “binds”.

B2: APE1027 (antibody, V domains shown)
VH: B1 VH with L5V, R19I, A23V, S49C, F60S, I70C
VL: B1 VL with M4L, P12A, T14L, Q27E, S32T, H98R
Consider B2, for which the binding result is recorded as “binds”.
